Assay results taken from publication PMC6599804, “N^ɛ-acetyl lysine derivatives with zinc binding groups as novel HDAC inhibitors” (Royal Society Open Science, 2019).
Entries after “also recorded” stand apart in the source; their conditions may differ.

Test system: HDACⅠ
Assay: HDAC subtype selectivity assay with subtype substrate, HDACⅠ
Assay type: biochemical, human
Settings: 1μM; from table S1
Excerpt: against both tumor cells and normal cells, then calculate and compare their selective index.” […]
of Supporting Information.
Reponses to Reviewer 2’s comments
Reviewer 2 is also very positive about the manuscript. We thank the reviewer for the helpful comments and careful reading of the manuscript. Our changes and/or responses are detailed below.
Comment 1: “Should add some discussion about whether the synthesized compounds intend to be pan- or specific- HDAC inhibitors.”
S1 of Supporting Information.
Comment 2: “ The cellular data is just described for the acetylation level of tubulin which is only relevant […]
And then incubation at 37℃ for 1h, the mixture was stopped by the addition of 50 μL of Buffer B (200mM HCl/300 mM Acetic acid), fluorescence intensity was measured using a microplate reader at excitation and emission wavelengths of 360 nm and 460 nm. The inhibition ratios were calculated from the fluorescence intensity readings of tested wells relative to those of control wells, […]
The rate of cell survival under the action of test substances was evaluated by an improved MTS assay as previously described. […]
48 hours 5ul of MTS reagent solution was added into each well and the cells were incubated for another 4 hours at 37℃ under 5% CO2 environment. The absorbance was measured at 490 nm in […]

## O=C(CCCCCCC(=O)NCCCC[C@H](NC(=O)OCc1ccccc1)C(=O)Nc1ccccc1)NO [Compound 18c]
  inhibitory selectivity between HDAC I and HDAC II (pan- or specific HDAC inhibitor): no obviously inhibitory selectivity; also recorded: pan-HDAC inhibitors
